PubChem BioAssay AID1259254 – NCATS | 2017
This is a random part of about 59,000 reagents. About 1,550 of all reagents (2.6%) count as active. 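G2 share is only a proxy for re-replication; each gene was hit by three separate siRNAs, and active genes were retested.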 Raw values are not corrected between plates. A number with no mark means an inactive call. The numbers tell different reagents against one gene apart. Reagent sequences are not shown. The record does not give: the amount of reagent.

Screen: 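Finding genes that stop cells copying their DNA twice in one cycle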 (primary screen)
Cells: human HCT116 colorectal cancer cells
Knock-down reagent: single siRNA against human genes
Timing: 3 days
Measured: 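Nuclei stained with Hoechst and imaged; cell-cycle phase assigned by DNA content; G2 share scaled per plate, non-targeting siRNA 0%, GMNN siRNA 100%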
Scale: G2 robust z-score and G2 cells, % of GMNN control: higher = more G2 cells, more excess DNA replication; raw share of cells in G2: higher = larger share of cells with G2 DNA content
Call rule: 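An siRNA counts as active if its G2 robust z-score lies at least 5 MADs above the screen median; here such calls match roughly 38% of GMNN control or more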

target gene,reagent,G2 robust z-score,"G2 cells, % of GMNN control",raw share of cells in G2 (%)
HIVEP2,1,1,10,8.68
HIVEP2,2,-1.14,-5.02,3.77
HIVEP2,3,-0.479,-0.405,4.05
RPL21P106,1,-0.185,1.67,3.63
RPL21P106,2,-0.338,0.592,3.86
RPL21P106,3,0.467,6.25,5.52
OR6X1,1,0.82,8.74,6.77
OR6X1,2,4.6,35.3,18.8
OR6X1,3,0.0852,3.57,6.16
ADAT3,1,-0.0809,2.4,5.05
ADAT3,2,-0.506,-0.592,3.15
ADAT3,3,-0.923,-3.53,0.787
RPP40,1,-0.613,-1.35,4.46
RPP40,2,-0.404,0.125,4.19
RPP40,3,-0.251,1.2,3.62
GIPC2,1,0.671,7.69,9.44
GIPC2,2,0.0799,3.53,5.55
GIPC2,3,-1.07,-4.55,2.06

A run of entries taken from the entries so far, as a working copy:
target gene,reagent,G2 robust z-score,"G2 cells, % of GMNN control",raw share of cells in G2 (%)
ADAT3,1,-0.0809,2.4,5.05
ADAT3,2,-0.506,-0.592,3.15
ADAT3,3,-0.923,-3.53,0.787

Further records:
target gene,reagent,G2 robust z-score,"G2 cells, % of GMNN control",raw share of cells in G2 (%)
PEG3,1,-0.282,0.986,3.85
PEG3,2,1.47,13.3,11.1
PEG3,3,0.216,4.49,4.74
FREY1,1,-0.135,2.02,3.54
FREY1,2,0.347,5.41,4.95
FREY1,3,-1.01,-4.14,2.44
TAF15,1,-0.197,1.58,6.27
TAF15,2,-0.477,-0.389,4.35
TAF15,3,-0.607,-1.3,3.78
SPART,1,-0.748,-2.29,4.09
SPART,2,0.0722,3.48,5.57
SPART,3,0.00902,3.03,4.31
